Assay results reported in US20160031955A1 (INSERM INSTITUT NATIONAL DE LA SANT ET DE LA RECHERCHE M …, published 2016).

Protein sequences, listed by entry. Tags and fused reporters are not part of them. Lines headed by an entry give the natural chain unless they say otherwise; changes in a name come on top.
UniProt O95831: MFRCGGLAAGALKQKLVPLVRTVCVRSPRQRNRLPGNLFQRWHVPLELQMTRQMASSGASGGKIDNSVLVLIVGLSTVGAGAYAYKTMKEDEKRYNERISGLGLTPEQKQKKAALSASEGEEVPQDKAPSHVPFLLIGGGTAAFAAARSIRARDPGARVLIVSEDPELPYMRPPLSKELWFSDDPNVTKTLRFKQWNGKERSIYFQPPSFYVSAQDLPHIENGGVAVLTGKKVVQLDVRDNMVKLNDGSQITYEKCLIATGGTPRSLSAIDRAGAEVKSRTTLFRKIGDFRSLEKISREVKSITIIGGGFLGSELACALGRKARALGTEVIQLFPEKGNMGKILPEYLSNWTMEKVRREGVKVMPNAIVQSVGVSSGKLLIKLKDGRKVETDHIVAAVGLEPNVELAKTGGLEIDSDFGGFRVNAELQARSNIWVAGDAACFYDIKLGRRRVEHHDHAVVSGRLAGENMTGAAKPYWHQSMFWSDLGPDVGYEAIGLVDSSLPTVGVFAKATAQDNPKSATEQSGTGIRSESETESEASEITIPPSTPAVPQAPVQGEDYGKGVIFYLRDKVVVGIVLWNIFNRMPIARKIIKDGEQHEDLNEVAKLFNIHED

B1: GST-tagged full length MIA40 (wt) (protein, not shown: a dimerising Fc or GST)
chain: MSYCRQEGKDRIIFVTKEDHETPSSAELVADDPNDPYEEHGLILPNGNINWNCPCLGGMASGPCGEQFKSAFSCFHYSTEEIKGSDCVDQFRAMQECMQKYPDLYPQEDEDEEEEREKKPAEQAEETAPIEATATKEEEGSS
B2: GST-tagged point mutant of MIA40 C4S (protein, not shown: a dimerising Fc or GST; small tags and cut ends)
chain: B1 chain with C4S
B3: GST-tagged point mutant of MIA40 C53S+C55S (protein, not shown: a dimerising Fc or GST; small tags and cut ends)
chain: B1 chain with C53S, C55S
B4: GST-tagged point mutant of MIA40 C74S (protein, not shown: a dimerising Fc or GST; small tags and cut ends)
chain: B1 chain with C74S
B5: GST-tagged point mutant of MIA40 C87S (protein, not shown: a dimerising Fc or GST; small tags and cut ends)
chain: B1 chain with C87S
B6: GST-tagged point mutant of MIA40 C97S (protein, not shown: a dimerising Fc or GST; small tags and cut ends)
chain: B1 chain with C97S

target: recombinant AIF (103-613) (human) (UniProt O95831); test: GST pull-down

Row | Binder | binding
1 | B1 | binds

target: recombinant AIF (103-613) (human) (UniProt O95831); test: GST pull-down of recombinant AIF

Row | Binder | binding
2 | B2 | binds
3 | B3 | binds
4 | B4 | binds
5 | B5 | binds
6 | B6 | binds

Positions count from the first letter of the chain named. Names and notes keep the numbering of the source. No constants are given. Whether binding was seen depends on the method and setting. Binding seen in cells or lysates may run through a third protein. A result given as binding can be weak or reduced; the word gives no strength. Where a sequence is shown, tags or fusion partners need not be part of it.
